The values that follow come from the supplement of paper PMC7858590.

± gives the standard deviation of the averaged measurements. The full ranking holds about 3,800 compounds; the median of “cell shape (eccentricity) Z-score vs DMSO control” is about 1.1, and the lowest 2% start at about -4.7. Some of the results follow.

In this assay the test system is human monocyte-derived macrophages (M0). Briefly: cell shape (eccentricity) Z-score vs DMSO control; higher = more elongated, M2-like morphology. As to conditions: 20 µM; 24 h; macrophage state: M0 (M-CSF).
Take `O=C1NC(=O)C(c2ccccc2)(c2ccccc2)N1`: the “cell shape (Z-score)” value came to 2.96.
For the compound `O=C1c2cc(O)cc(O)c2C(=O)c2c(O)cc(CO)cc21`, the “cell shape (Z-score)” value was -0.497.
For `O=C(/C=C/c1ccc(O)c(O)c1)OC(Cc1ccc(O)c(O)c1)C(=O)O` (stereo not drawn) the value was 2.69.
For `CN1C(=O)c2ccccc2-n2c(nc3ccccc3c2=O)[C@@]12O[C@H]2c1ccccc1` the value was 2.3; for `CC(C)CC(=O)O[C@@H]1OC=C(CO[C@@H]2O[C@H](CO)[C@@H](O)[C@H](O)[C@H]2O)[C@H]2C[C@H](O)[C@@](C)(O)[C@@H]12`, 2.28 ± 0.88; for `CNCCCC1c2ccccc2C=Cc2ccccc21`, 2.99.
With `CCN(CC)CCOc1ccc(Cc2ccccc2)cc1` the figure was 0.76.
In the case of `C/C(=C\C(=O)Nc1ccccc1C(=O)O)c1ccc2ccccc2c1`, the “cell shape (Z-score)” value stood at 1.16.
For `O=[N+]([O-])c1cccc2c(Br)n[nH]c12` the value was 1.68.
Turning to `Cc1ccc2nc(NCCN)c3ncc(C)n3c2c1`, the “cell shape (Z-score)” value stood at 0.943.
Turning to `COc1cccc(OC)c1-c1cc(C(=O)NC2(C(=O)O)C3CC4CC(C3)CC2C4)nn1-c1ccc(C(=O)N(C)CCCN(C)C)cc1C(C)C` (stereo not drawn), the “cell shape (Z-score)” value amounted to 0.908.
For `CN/C(=C\[N+](=O)[O-])NCCSCc1csc(CN(C)C)n1` the value was 1.52; for `CCN(Cc1cccc(S(=O)(=O)O)c1)c1cccc(C(=C2C=CC(=[N+](CC)Cc3cccc(S(=O)(=O)O)c3)C=C2)c2ccc(O)cc2S(=O)(=O)O)c1`, -0.759; for `COc1cc(NS(C)(=O)=O)ccc1Cc1c2ccccc2nc2ccccc12`, 0.322.
In the case of `CC1=C(CO)C(=O)OC([C@@H](C)[C@H]2CCC3C4CC=C5C[C@@H](O[C@@H]6O[C@H](CO)[C@@H](O)[C@H](O)[C@H]6O)C[C@H](O)[C@]5(C)C4CC[C@@]32C)C1` (stereo partly drawn), the “cell shape (Z-score)” value stood at 1.5.
For `CC(C)=CCC/C(C)=C/CC/C(C)=C/Cc1c(C)cc(O)cc1O`, the “cell shape (Z-score)” value was -0.328.
For the compound `COC(=O)c1cc(CO)cc(O)c1C(=O)c1c(O)cccc1O`, the “cell shape (Z-score)” value was found to be 0.915.
With `COc1nc(C)nc(Cl)c1NC1=NCCN1` the figure was 0.738.
As to `O=C(c1ccc(F)cc1)C1CCN(CCn2c(=S)[nH]c3ccccc3c2=O)CC1`, the “cell shape (Z-score)” value was -0.52.
`C=CC/C=C\C/C=C\CCCCCCCc1cccc(O)c1C(=O)O`: the “cell shape (Z-score)” value stood at 1.56.
For `COc1c2occc2c(OC)c2c(=O)cc(C)oc12` the value was 1.97; for `O=C(O)CCC(=O)c1ccc(-c2ccccc2)cc1`, 4.1; for `Oc1c(I)cc(I)c2cccnc12`, 1.5.
For `CC(=O)c1c(O)c(C)c(O)c2c1OC1=CC(=O)C(C(C)=O)C(=O)C12C` (stereo not drawn) the value was 2.36; for `C=C1C(=O)O[C@H]2C3=C(C)C[C@H](OC(C)=O)C[C@]3(C)CC[C@@H]12`, 6.29.
For `Cc1cc(-n2c(=O)[nH]c(=O)n(C)c2=O)ccc1Oc1ccc(SC(F)(F)F)cc1` the value was 2.6; for `C/C=C/c1ccc2c(c1)O[C@@H](CN(C)C(=O)c1ccccc1)[C@@H](C)CN([C@@H](C)CO)S2(=O)=O`, 6.42.
As to `CC(C)=CCc1c(O)cc(O)c2c1OC(c1ccc(O)c(O)c1)CC2=O` (stereo not drawn), the “cell shape (Z-score)” value worked out at 1.24.
`COc1cc2nc3occc3c(OC)c2cc1OCC(O)C(C)(C)O` (stereo not drawn): the “cell shape (Z-score)” value came to 1.64.
Take `COc1c(O)c(C(=O)/C=C\c2ccccc2)c(OC)c(OC)c1OC`: the “cell shape (Z-score)” value came out at 5.2.
Turning to `COc1ccc2cc(CCC(C)=O)ccc2c1`, the “cell shape (Z-score)” value was 0.994.
Turning to `O=C(/C=C/c1ccccc1)O[C@@H]1O[C@H](CO)[C@@H](O)[C@H](O)[C@H]1O`, the “cell shape (Z-score)” value turned out to be 2.26.
As to `COc1cc([C@H](Cc2ccccc2)NC(C)=O)oc(=O)c1`, the “cell shape (Z-score)” value came to 2.15.
As to `CO/N=C(/C(=O)NC1C(=O)N2C(C(=O)OC(C)OC(C)=O)=C(COC(N)=O)CSC12)c1ccco1` (stereo not drawn), the “cell shape (Z-score)” value is 1.75.
With `C[C@@H]1O[C@@H](O[C@H]2[C@H](O[C@H]3[C@H](O[C@H]4CC[C@@]5(C)C(CC[C@]6(C)C5CC=C5[C@@H]7CC(C)(C)C[C@@H](O)[C@]7(C)CC[C@]56C)[C@@]4(C)CO)O[C@H](C(=O)O)[C@@H](O)[C@@H]3O)OC[C@H](O)[C@@H]2O)[C@H](O)[C@H](O)[C@H]1O` (stereo partly drawn) the figure was -1.07; with `Nc1ccc(/N=N/c2ccccc2)c(N)n1`, -1.01; with `CCC(C)C1NC(=O)c2c1n(C)c1ccccc1c2=O` (stereo not drawn), -1.06.
With `CCN(Cc1ccncc1)C(=O)C(CO)c1ccccc1` (stereo not drawn) the figure was -0.586.
With `CC(C)c1ccc2c(c1)CCC1C(C)(C(N)=O)CCCC21C` (stereo not drawn) the figure was 3.44.
For `CC(=O)N(OCc1ccccc1)[C@@H]1c2cc(C#N)ccc2OC(C)(C)[C@H]1O`, the “cell shape (Z-score)” value is 0.703.
With `COc1cc2nc(N3CCN(C(=O)c4ccco4)CC3)nc(N)c2cc1OC` the figure was -2.47; with `CC(=O)NC(Cc1c[nH]c2ccccc12)C(=O)OCc1cc(C(F)(F)F)cc(C(F)(F)F)c1` (stereo not drawn), 2.03.
With `COc1c(OC)c(O)c2c(=O)c(O)c(-c3ccccc3)oc2c1OC`, the “cell shape (Z-score)” value worked out at 4.23.
With `COc1ccc2[nH]cc(CCNC(C)=O)c2c1` the figure was -0.192.
For the compound `O=C(CCc1ccc(O)cc1)c1c(O)cc(O[C@@H]2O[C@H](CO)[C@@H](O)[C@H](O)[C@H]2O)cc1O`, the “cell shape (Z-score)” value was 1.9.
For `C/C(=C\Cc1c(O[C@@H]2O[C@H](CO)[C@@H](O)[C@H](O)[C@H]2O)ccc2ccc(=O)oc12)CO` the value was 0.962 ± 0.97; for `CO[C@H]1C[C@@H]2CC[C@@H](C)[C@@](O)(O2)C(=O)C(=O)N2CCCC[C@H]2C(=O)O[C@H]([C@H](C)C[C@@H]2CC[C@@H](O)[C@H](OC)C2)CC(=O)[C@H](C)/C=C(\C)[C@@H](O)[C@@H](OC)C(=O)[C@H](C)C[C@H](C)/C=C/C=C/C=C/1C`, 0.164 ± 1.3; for `Oc1nc2cc(Cl)c(Cl)cc2nc1O`, 1.51.
For `N#C/C(=C\c1ccc(O)c(O)c1)C(=O)NC1CCC(CC2CCC(NC(=O)/C(C#N)=C/c3ccc(O)c(O)c3)CC2)CC1` (stereo not drawn) the value was 0.897; for `C1=C(CN2CCOCC2)COc2c1cccc2OCC1CNCCO1` (stereo not drawn), 2.61; for `CC1=CCC(C(C)(C)O[C@@H]2O[C@H](COC(=O)c3cc(O)c(O)c(O)c3)[C@@H](O)[C@H](O)[C@H]2O)CC1` (stereo partly drawn), -0.772.
As for `COc1cc2c(cc1O)C1(O)Cc3ccc4c(c3C1N(C)CC2)OCO4` (stereo not drawn), the “cell shape (Z-score)” value was 0.0689.
With `C/C=C/C/C=C/CCC(=O)[C@H]1O[C@H]1C(N)=O` the figure was 2.07; with `O=C(O)CCCc1ccccc1`, 0.59.
With `Cc1ccc(-c2nn(C(C)(C)C)c3ncnc(N)c23)cc1` the figure was 0.687; with `CC1OC(OCC2OC(O[C@H]3CC[C@@]4(C)C(CC[C@@]5(C)C6=C(CCC45)C4CC(C)(C)CC[C@]4(C(=O)OC4OC(CO)C(O)C(O)C4O)CC6)C3(C)C)C(O)C(O)C2O)C(O)C(O)C1O` (stereo partly drawn), 4.2 ± 2.3; with `NC(CC(=O)Nc1ccc(Oc2cc(F)c(F)cc2Br)cc1)C(=O)O` (stereo not drawn), 1.14.
As for `CC(=O)Oc1ccc(C(=C2CCCCC2)c2ccc(OC(C)=O)cc2)cc1`, the “cell shape (Z-score)” value amounted to 0.835.
Regarding `CC(=O)/C=C/C1(O)C(C)CCC2C(C)(C)CCCC21C` (stereo not drawn), the “cell shape (Z-score)” value was -2.22 ± 0.82.
In the case of `COc1cccc2c1C(=O)c1c(O)c3c(c(O)c1C2=O)CC(O)(C(=O)CO)CC3OC1CC(N)C(O)C(C)O1` (stereo not drawn), the “cell shape (Z-score)” value came to 2.61.
In the case of `CC(=O)OC1CC2(C)C3CC=C4C(CC(O)C(O)C4(C)C)C3(C)CCC2(C)C1C(C)(O)C(=O)CCC(C)(C)O` (stereo not drawn), the “cell shape (Z-score)” value amounted to 1.76.
For the compound `CC(=O)OCC(=O)[C@@]1(O)CCC2C3CCC4=CC(=O)C=C[C@]4(C)[C@@]3(Cl)[C@@H](Cl)C[C@@]21C` (stereo partly drawn), the “cell shape (Z-score)” value is -2.51.
For the compound `C=C1C(=O)O[C@@H]2[C@H]3C(CO)=CC(=O)C3=C(C)C[C@H](OC(=O)Cc3ccc(O)cc3)[C@@H]12`, the “cell shape (Z-score)” value was -6.23.
For `COc1cc(O)cc(C(=O)O)c1Oc1cc(C)cc(O)c1C(=O)O` the value was 0.855.
For `C[C@]12CCC(=O)C=C1C=CC1C2CC[C@@]2(C)C1CC[C@@]21CCC(=O)O1` (stereo partly drawn) the value was 3.08.
For `COC1=CC(=O)C[C@@H](C)[C@]12Oc1c(Cl)c(OC)cc(OC)c1C2=O`, the “cell shape (Z-score)” value is -0.627.
For `CC1(CCOC2OC(CO)C(O)C(O)C2O)CCC2C(=CCC3C(C)(C(=O)O)CCCC23C)C1` (stereo not drawn) the value was 3.65 ± 3.6; for `CC[C@H]1OC(=O)[C@H](C)[C@@H](O[C@H]2C[C@@](C)(OC)[C@@H](O)[C@H](C)O2)[C@H](C)[C@@H](O[C@@H]2O[C@H](C)C[C@H](N(C)C)[C@H]2O)[C@](C)(O)C[C@@H](C)C(=O)[C@H](C)[C@@H](O)[C@]1(C)O`, 6.87; for `CC(=O)Oc1cccc(O)c1`, 2.65.
For `Cc1onc(-c2ccccc2)c1C(=O)N[C@@H]1C(=O)N2[C@@H](C(=O)O)C(C)(C)S[C@@H]12` the value was 1.05; for `C=C1[C@@H]2CC[C@H]3[C@]4(C)C[C@H](O)C[C@@H](C(=O)OC)[C@H]4CC[C@]3(C2)[C@H]1O`, 0.438.
With `O=C1c2ccccc2S(=O)(=O)N1CCCCN1CCN(c2ncccn2)CC1` the figure was 1.29.
On to `O=c1c2ccccc2nc2n1CCC2O` (stereo not drawn), for which the “cell shape (Z-score)” value is 0.2.
With `CC1(C)CC[C@]2(C(=O)O[C@@H]3O[C@H](CO[C@@H]4O[C@H](CO)[C@@H](O)[C@H](O)[C@H]4O)[C@@H](O)[C@H](O[C@@H]4O[C@H](CO)[C@@H](O)[C@H](O)[C@H]4O)[C@H]3O)CC[C@]3(C)C(=CCC4[C@@]5(C)CC[C@H](O)[C@@](C)(C(=O)O)C5CC[C@]43C)C2C1` (stereo partly drawn) the figure was 1.07.
With `CN(C)CCc1c[nH]c2ccc(Cn3cncn3)cc12` the figure was -1.24; with `COc1ccc(NS(=O)(=O)c2ccc(N)cc2)nn1`, 2.12; with `COc1ccc([C@@H]2CC(=O)c3c(O)cc(O[C@@H]4O[C@H](CO[C@H]5O[C@@H](C)[C@H](O)[C@@H](O)[C@H]5O)[C@@H](O)[C@H](O)[C@H]4O)cc3O2)cc1O`, 3.07.
In the case of `O=c1c(-c2ccc(O)cc2)coc2cc(O[C@@H]3O[C@H](CO)[C@@H](O)[C@H](O)[C@H]3O)cc(O)c12`, the “cell shape (Z-score)” value was found to be 3.66.
For `O=C(Nc1ccc([N+](=O)[O-])cc1O)Nc1ccccc1Br` the value was -4.95 ± 7.5.
With `CN(C(=O)COC(=O)/C=C/c1cccc([N+](=O)[O-])c1)C1CCS(=O)(=O)C1` (stereo not drawn) the figure was -1.2; with `C/C(=C\C=C\C(C)C)CCC/C(C)=C/COc1c(O)cc2c(c1O)CNC2=O`, -0.193.
With `CCN(CC)CCOC(=O)C1(C2CCCCC2)CCCCC1`, the “cell shape (Z-score)” value was 1.54.
For `C=C(C(=O)O)C1C(OC(=O)/C(=C/CO)CO)CC(C)(O)C2CC(OC(C)=O)C(C)=CC12` (stereo not drawn) the value was 0.166.
